According to PubChem BioAssay AID540276 (National Center for Advancing Translational Sciences (NCATS), 2011):
In all, about 300,000 compounds went through this assay and about 5,400 (1.8%) were called active. This list was built around the results that the source calls inconclusive (neither active nor inactive); the mix of calls is not that of the screen. Calls come from the whole dose curve; tested in HEK293 cells. Potencies beside an inconclusive call are fits to weak or partial responses and may not hold up.

assay: qHTS for inhibitors of binding or entry into cells for Marburg Virus; settings: Marburg virus pseudotyped entry inhibition, cell reporter; activity change, negative = inhibition: at 37.8 µM (top of the series) unless noted
% is set by controls: 0 for no effect and ±100 for the full control effect; potency is the fitted concentration of half-maximal effect.

SMILES	Potency	activity change, negative = inhibition
CCN(CC(=O)NCc1ccc(F)cc1)C(=O)COc1ccc(C)c(C)c1	inactive	–
Cc1cc2c(C)nc3ccccc3c2o1	inactive	–
Cc1onc(-c2c(F)cccc2Cl)c1C(=O)Nc1cccc(S(=O)(=O)NCc2ccco2)c1	inactive	–
CCc1ccc(NC(=O)N(CCN2CCOCC2)Cc2ccc3c(c2)CCCN3CC)cc1	inconclusive: 14.6 µM [inhibitor, partial curve]	–
COc1cc(C(=O)Nc2ccc3c(c2)N(C(=O)CCN(C)C)c2ccccc2CC3)cc(OC)c1OC	inconclusive: 11.2 µM [inhibitor, partial curve, poor fit]	–
Cc1ccc(/C=C/C(=O)Nc2ccc(Oc3ccccc3)cc2)o1	inconclusive: 0.316 µM [inhibitor, partial curve, poor fit]	–
C/C(=N\Nc1nccnc1Cl)c1ccc(F)cc1	inconclusive: 11.2 µM [activator, single point]	–
CCn1c(NC(=O)C(C)C)c(-c2cccs2)c(=O)c2ccccc21	inactive	–
Cn1c(=NC(=O)c2cccc([N+](=O)[O-])c2)sc2ccccc21	inactive	–
O=C(CNC(=O)c1ccc(Oc2ccccc2)cc1)OC1CCCCC1=O (stereo not given)	inconclusive: 35.5 µM [activator, single point]	–
Fc1ccc(NC(=S)N/N=C/c2ccc(F)c(F)c2)cc1	inactive	–
O=C(CN1CCc2ccccc2C1)Nc1ccccc1F	inconclusive: 6.31 µM [inhibitor, partial curve, poor fit]	–
Cc1nc2ccccn2c1-c1csc(NCc2ccco2)n1	inactive	–
O=S(=O)(NCc1ccncc1)c1ccc(Br)s1	inconclusive: 2 µM [inhibitor, full curve, poor fit]	–
Cc1ccc(CNC(=O)C2CCCN(c3nc4ccsc4c(=O)s3)C2)cc1 (stereo not given)	inconclusive: 5.62 µM [activator, single point]	–
Cc1cccc(Nc2nnc(SCC3CCCCO3)s2)c1C (stereo not given)	inconclusive: 7.94 µM [activator, single point]	–
CCN1C(=O)c2ccccc2S(=O)(=O)c2ccc(C(=O)NCc3ccc(OC)cc3)cc21	inactive	–
Cc1ccc(O)c(C(=O)C=Cc2ccccc2)c1	inconclusive: 35.5 µM [inhibitor, single point]	–
COc1cc(/C=N/NC(=O)CSc2n[nH]c(=O)[nH]c2=O)cc(OC)c1O	inconclusive: 5.62 µM [activator, single point]	–
COc1cc(C(=O)NCCCCCC(=O)O)cc(OC)c1OC	inactive	–
COc1cccc(/C=C/C(=O)OCC(=O)Nc2ccccc2Sc2ccccc2)c1	inactive	–
O=C(CCCN1C(=O)c2cccc3cccc(c23)C1=O)N1CCN(c2ccccc2O)CC1	inconclusive: 35.5 µM [inhibitor, single point]	–
Cc1ccc(-n2nnnc2SCC(=O)NC2CCCc3ccccc32)c(C)c1 (stereo not given)	inconclusive: 35.5 µM [inhibitor, single point]	–
N#Cc1ccccc1CSc1nnc2ccc3ccccc3n12	inactive	–

SMILES	Potency	activity change, negative = inhibition
COCc1c(Br)c(C)nc2sc3c(=O)n(-c4cccc(Br)c4)nnc3c12	inactive	–
Cn1c(C(=O)N2CCC(C(=O)NCCc3ccccc3)CC2)cc2sccc21	inconclusive: 10 µM [activator, partial curve, poor fit]	–
CCC(C(=O)NC1CCCCC1)n1c(SCc2cccc(C)c2)nc2ccncc21 (stereo not given)	inconclusive: 7.94 µM [inhibitor, partial curve, poor fit]	–
COc1ccccc1N1CCN(/N=C\c2cccnc2)CC1	inconclusive: 35.5 µM [activator, single point]	–
COCCn1nnnc1CN1CCN2CCCC2C1 (stereo not given)	inactive	–
O=C(c1ccc(S(=O)(=O)Nc2cccc(C(F)(F)F)c2)cc1)N1CCN(c2ccccc2O)CC1	inconclusive: 35.5 µM [inhibitor, single point]	–
COc1ccc(-c2cc(=Nc3ccc(C(=O)O)cc3)c3cc(C)ccc3o2)cc1	inconclusive: 14.1 µM [inhibitor, single point]	–
CN1C(=S)SC(C)(C)C1N(O)C(=O)Nc1ccc(Cl)cc1 (stereo not given)	inconclusive: 3.16 µM [inhibitor, partial curve, poor fit]	–
Cc1nn(CCS(=O)(=O)c2ccc(Cl)cc2)c(C)c1Br	inconclusive: 35.5 µM [inhibitor, single point]	–
Cc1ccc(-c2cc(C(=O)NC3CCCC3)no2)cc1	active: 10 µM	–
Cc1ccc(C)c2c1cc(C)c1nnc(SCC(=O)NCc3ccc4c(c3)OCO4)n12	inconclusive: 2.51 µM [inhibitor, single point]	–
O=C(O)c1cccc(-n2cnc3cccnc32)c1	inactive	–
COc1ccc(NC(=O)CN(C)C2CCCCC2)c([N+](=O)[O-])c1	inconclusive: 11.2 µM [activator, partial curve, poor fit]	–
CS(=O)(=O)N(CCc1ccccc1)CC(=O)N1CCc2ccccc2C1	inconclusive: 31.6 µM [inhibitor, partial curve, poor fit]	–
COc1ccc(CC(=O)Nc2cc(S(=O)(=O)N3CCCCC3)ccc2C)cc1OC	inconclusive: 2.82 µM [inhibitor, partial curve, poor fit]	–
CCN(CC)S(=O)(=O)c1cccc(NC(=O)C2SC(=Nc3ccc(C)cc3C)C(C(=O)NCC3CCCO3)=C2N)c1 (stereo not given)	inconclusive: 20.6 µM [inhibitor, single point]	–
COc1cccc(NC(=O)c2cc3c(-c4ccc(Cl)cc4)nn(C)c3s2)c1	inactive	–
CC(C)(c1ccc(O)c([N+](=O)[O-])c1)c1ccc(O)c([N+](=O)[O-])c1	inconclusive: 5.62 µM [inhibitor, single point]	–
Cc1cc(O)ccc1N/C=C/c1onc(C)c1[N+](=O)[O-]	inconclusive: 11.2 µM [inhibitor, partial curve, poor fit]	–
CCOC(=O)c1nn(-c2cccc(OC)c2)c(-c2ccccc2)c1C(=O)c1ccccc1	inconclusive: 11.2 µM [inhibitor, partial curve]	–
Cc1c(C#N)c2ccccc2n1CCOc1ccccc1F	inconclusive: 29.1 µM [inhibitor, single point]	–
Cc1coc2cc3oc(=O)c(CCC(=O)NCc4ccccc4Cl)c(C)c3cc12	inactive	–
COc1ccc(-c2nn(-c3ccc(C)cc3)c3c2cnc2ccc(C)cc23)cc1OC	inactive	–
Cc1cc(=O)nc2c3ccccc3n(CC(=O)NCCCN3CCOCC3)n12	–	inconclusive: 4.11% [activator] [at 46.1 µM]

SMILES	Potency	activity change, negative = inhibition
COc1ccc2c(c1)[nH]c1c(=O)n(/N=C/C3C(C)C=C(C)CC3C)c(=O)[nH]c12 (stereo not given)	inconclusive: 20 µM [inhibitor, partial curve, poor fit]	–
C(=N\NC1=Nc2cccc3cccc1c23)/c1ccccc1	inconclusive: 0.355 µM [activator, full curve, poor fit]	–
O=C1NC(=Nc2ccccc2)S/C1=C\C=C\c1ccco1	inconclusive: 35.5 µM [inhibitor, single point]	–
CC1=CC(C)(C)Nc2ccc(OC(=O)c3cccnc3)cc21	inconclusive: 13 µM [inhibitor, partial curve, poor fit]	–
CCn1ncc(Br)c1C(=O)Nc1ccc2c(c1)OCCO2	inconclusive: 5.62 µM [activator, single point]	–
CCn1cc(-c2cc(C(=O)O)c3ccccc3n2)cn1	inactive	–
Cc1ccc(S(=O)(=O)Nc2ccc3c(c2)nc(C)n3C)cc1	inconclusive: 35.5 µM [inhibitor, single point]	–
Cc1cc(Br)cc(C=Nc2ccc(N3CCOCC3)cc2)c1O	inconclusive: 6.31 µM [activator, single point]	–
O=C(Cc1ccc(Cl)cc1)NNC(=S)NC(=O)c1cccs1	inactive	–
C/C(=N\NC(=O)Nc1ccccc1)c1ccccc1	inconclusive: 31.6 µM [activator, single point]	–
Cc1ccc(-c2csc(NC(=O)c3ccc([N+](=O)[O-])o3)n2)cc1	inconclusive: 2.82 µM [inhibitor, full curve]	–
COc1ccc(CCNc2nc3cc(OC)c(OC)cc3c3nc(-c4ccccc4)nn23)cc1OC	inactive	–
COc1ccc(OC)c(-c2cc(C(=O)Nc3c(C)nn(Cc4ccccc4C)c3C)no2)c1	inconclusive: 29.1 µM [inhibitor, single point]	–
NC(=O)c1nsc(C(=O)N(c2ccc(Cl)cc2)C(C(=O)NCC2CCCO2)c2cccs2)c1N (stereo not given)	inconclusive: 28.2 µM [inhibitor, single point]	–
CSc1ncc(-c2ccc(Cl)cc2)[nH]1	inactive	–
CCN(CC)c1ccc(/C=N/NC(=S)NCc2ccc(OC)cc2)cc1	inconclusive: 14.6 µM [inhibitor, single point]	–
CC(C)n1cnc2cc(NCc3ccccn3)ccc21	inactive	–
COc1cc(NC(=S)NCc2cccnc2)cc(OC)c1	inactive	–
COCCOC(=O)c1c(C)oc2ccc(OCc3cc(C(=O)OC)oc3C)cc12	inconclusive: 29.1 µM [inhibitor, single point]	–
CN(C)CCCN(C(=O)c1nc2ccccc2s1)c1nc2ccc(F)cc2s1	inactive	–
O=c1c(Cl)c(N2CCN(c3ccccc3)CC2)cnn1C12CC3CC(CC(C3)C1)C2	inconclusive: 0.1 µM [activator, full curve, poor fit]	–
CCOC(=O)CCN1C(=O)[C@H]2[C@H]3[C@H](O)[C@H](O)C/C(=N\OCC(C)C)[C@@H]3CC[C@H]2C1=O	inactive	–

Four of these compounds, set out differently.
SMILES | Potency | activity change, negative = inhibition
COc1cc(C(=O)Nc2ccc3c(c2)N(C(=O)CCN(C)C)c2ccccc2CC3)cc(OC)c1OC | inconclusive: 11.2 µM [inhibitor, partial curve, poor fit] | –
O=C(O)c1cccc(-n2cnc3cccnc32)c1 | inactive | –
CC(C)(c1ccc(O)c([N+](=O)[O-])c1)c1ccc(O)c([N+](=O)[O-])c1 | inconclusive: 5.62 µM [inhibitor, single point] | –
C(=N\NC1=Nc2cccc3cccc1c23)/c1ccccc1 | inconclusive: 0.355 µM [activator, full curve, poor fit] | –
